The target of this experiment is T1, NLG-1 intracellular domain [aa. 710-798], two-hybrid bait (Caenorhabditis elegans) (UniProt Q9XTG1).
T1 sequence: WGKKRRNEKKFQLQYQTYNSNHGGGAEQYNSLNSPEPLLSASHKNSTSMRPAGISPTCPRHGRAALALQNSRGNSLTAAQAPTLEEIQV
In words: two-hybrid; Hybrigenics; NLG-1 fragment as bait, LIN-2B as prey; HIS3 reporter, growth on DO-3 medium without tryptophan, leucine and histidine; three independent yeast clones.

These are yes or no findings as the source states them, for the method shown. Some results given as binding are weak or reduced against the parent protein; the word gives no strength.

B1: LIN-2B full length [aa. 1-620], two-hybrid prey (protein, UniProt P54936-2 1-620)
chain: MSSAATPPPMEHTSSEDSTTAPLQTPSSSSCLDVTVAVGTSVSYLKASPLVSSPTSLVVDITESSSTLLYDKIKALPCEPVVTEVDTSTLRKETLNQIDGLLGPSPEALELRQLLNSPHLASCVQALDVVVCEIRDPKNEASGSGDKEGNCVSSDPAPAYLNGGVLPLGAQRAGTSFEHFNQSAVHTSYDEEEEELYDCMSRLRLVQFQKDTQEPMGITLKVNEDGRCFVARIMHGGMIHRQATLHVGDEIREINGMSVANRSVESLQEMLRDARGQVTFKIIPSYRSAPPACEIFVRAQFDYEPSQDDLIPCPQAGIPFKTGDILQVISKDDHNWWQARFVSSFPSIGNSSNAQRSNQQQVAGLIPSPELQEWRTACLAMERSKNTCNTHCMWFNKKKKYYTTKYLQKHSALFDQLDLVTYEEVMRLSQYRRKTLVLLGAHGVGRRHIKNTLIHRHPNRFAYPIPHTTRPPRKDEVDGKHYYFVTNEQMMADIQNNEYLEYGTHEESMYGTKLETIRNIHKSGKIAILDVEPQALKVLRTAEYSPFVVFIAAPNLQGMQDPDGSLEKLLNESDVLRQAFGHLFDFIITNSDIDDTIAQLERLVEKLPAYPQWLPVTWVY
On to B1, for which the binding entry was “binds”.

Values taken from publication PMC7260190.
